In the supplement of paper PMC12819154, “High-throughput peptide-centric local stability assay extends protein–ligand identification to membrane proteins, tissues and bacteria” (Nature Structural & Molecular Biology, 2025) one finds log2 fold change data, which are given here for 25 targets.

Amino acid sequences for entries named in this document (tags omitted). A change or cut given only in a name is not applied to a line headed by its entry.
UniProt Q96A72, whole entry: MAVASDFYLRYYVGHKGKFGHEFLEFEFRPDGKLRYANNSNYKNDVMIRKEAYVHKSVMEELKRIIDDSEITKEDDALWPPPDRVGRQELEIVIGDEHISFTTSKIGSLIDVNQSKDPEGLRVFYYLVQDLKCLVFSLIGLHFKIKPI
UniProt Q96F86: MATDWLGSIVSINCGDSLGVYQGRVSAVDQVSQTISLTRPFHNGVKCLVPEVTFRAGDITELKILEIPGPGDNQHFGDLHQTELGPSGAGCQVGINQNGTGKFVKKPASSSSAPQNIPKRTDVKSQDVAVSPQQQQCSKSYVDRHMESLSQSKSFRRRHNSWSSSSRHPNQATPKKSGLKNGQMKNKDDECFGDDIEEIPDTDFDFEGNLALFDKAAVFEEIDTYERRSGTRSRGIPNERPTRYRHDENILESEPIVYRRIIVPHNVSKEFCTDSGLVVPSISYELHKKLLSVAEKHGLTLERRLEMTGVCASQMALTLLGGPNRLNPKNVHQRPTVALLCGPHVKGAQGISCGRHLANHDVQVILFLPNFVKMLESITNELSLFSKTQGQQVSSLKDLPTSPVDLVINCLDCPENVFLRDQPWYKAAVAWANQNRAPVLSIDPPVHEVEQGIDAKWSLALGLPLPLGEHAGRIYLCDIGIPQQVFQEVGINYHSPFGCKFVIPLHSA
UniProt Q96EV2: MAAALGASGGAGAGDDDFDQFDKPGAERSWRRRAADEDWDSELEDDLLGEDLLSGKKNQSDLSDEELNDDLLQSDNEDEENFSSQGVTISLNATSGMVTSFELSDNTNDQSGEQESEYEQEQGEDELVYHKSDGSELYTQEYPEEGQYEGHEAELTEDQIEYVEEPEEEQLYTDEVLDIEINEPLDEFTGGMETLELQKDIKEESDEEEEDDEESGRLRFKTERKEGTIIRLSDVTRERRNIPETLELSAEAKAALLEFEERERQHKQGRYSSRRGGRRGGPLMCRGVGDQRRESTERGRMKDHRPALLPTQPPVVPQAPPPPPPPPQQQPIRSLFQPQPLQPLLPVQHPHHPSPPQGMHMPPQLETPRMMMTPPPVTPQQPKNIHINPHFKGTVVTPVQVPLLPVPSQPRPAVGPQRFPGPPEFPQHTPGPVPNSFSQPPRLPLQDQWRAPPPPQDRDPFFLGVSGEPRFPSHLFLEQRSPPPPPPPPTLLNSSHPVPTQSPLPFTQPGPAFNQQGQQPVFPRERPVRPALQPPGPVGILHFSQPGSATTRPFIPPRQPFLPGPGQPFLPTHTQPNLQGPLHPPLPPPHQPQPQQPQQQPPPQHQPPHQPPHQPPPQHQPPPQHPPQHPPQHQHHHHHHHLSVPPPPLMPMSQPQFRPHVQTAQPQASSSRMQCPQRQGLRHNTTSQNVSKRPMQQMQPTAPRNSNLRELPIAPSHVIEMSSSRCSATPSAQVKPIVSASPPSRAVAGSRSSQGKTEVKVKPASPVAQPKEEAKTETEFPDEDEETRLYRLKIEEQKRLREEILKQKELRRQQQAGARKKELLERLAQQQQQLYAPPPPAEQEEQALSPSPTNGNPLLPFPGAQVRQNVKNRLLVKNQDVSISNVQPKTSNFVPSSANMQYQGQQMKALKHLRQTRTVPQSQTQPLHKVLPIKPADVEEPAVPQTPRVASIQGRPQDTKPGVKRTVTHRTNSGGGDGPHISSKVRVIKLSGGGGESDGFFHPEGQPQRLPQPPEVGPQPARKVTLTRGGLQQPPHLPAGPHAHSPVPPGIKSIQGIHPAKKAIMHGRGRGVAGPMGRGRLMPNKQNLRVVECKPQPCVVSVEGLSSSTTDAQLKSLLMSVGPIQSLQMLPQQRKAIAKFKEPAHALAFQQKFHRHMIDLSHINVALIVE
UniProt Q96EY9: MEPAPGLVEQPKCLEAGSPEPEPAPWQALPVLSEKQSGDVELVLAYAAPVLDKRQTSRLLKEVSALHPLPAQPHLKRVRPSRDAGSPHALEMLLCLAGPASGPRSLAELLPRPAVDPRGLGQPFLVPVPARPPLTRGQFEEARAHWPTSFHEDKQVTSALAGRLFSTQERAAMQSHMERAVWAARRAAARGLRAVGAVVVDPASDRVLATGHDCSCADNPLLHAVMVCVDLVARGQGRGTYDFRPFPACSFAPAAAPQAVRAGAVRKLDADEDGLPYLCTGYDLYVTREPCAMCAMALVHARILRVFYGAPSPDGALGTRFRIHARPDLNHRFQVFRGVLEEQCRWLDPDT
UniProt Q96DI7: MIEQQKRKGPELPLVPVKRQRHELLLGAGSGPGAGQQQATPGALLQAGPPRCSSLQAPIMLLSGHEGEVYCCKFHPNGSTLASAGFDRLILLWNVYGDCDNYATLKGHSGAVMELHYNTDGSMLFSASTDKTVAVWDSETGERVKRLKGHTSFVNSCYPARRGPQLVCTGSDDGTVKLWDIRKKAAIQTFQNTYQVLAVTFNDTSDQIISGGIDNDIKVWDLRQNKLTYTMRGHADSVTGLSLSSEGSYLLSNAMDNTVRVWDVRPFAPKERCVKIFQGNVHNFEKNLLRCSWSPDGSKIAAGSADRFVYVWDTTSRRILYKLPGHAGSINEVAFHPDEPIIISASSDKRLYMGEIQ
UniProt Q96BR5: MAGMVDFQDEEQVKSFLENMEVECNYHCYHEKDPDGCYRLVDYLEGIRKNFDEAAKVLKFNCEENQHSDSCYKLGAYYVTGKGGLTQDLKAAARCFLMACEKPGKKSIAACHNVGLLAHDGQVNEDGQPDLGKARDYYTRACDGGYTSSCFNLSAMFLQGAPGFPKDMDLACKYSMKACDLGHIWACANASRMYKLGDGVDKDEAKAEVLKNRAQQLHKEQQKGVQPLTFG
UniProt Q96AX1: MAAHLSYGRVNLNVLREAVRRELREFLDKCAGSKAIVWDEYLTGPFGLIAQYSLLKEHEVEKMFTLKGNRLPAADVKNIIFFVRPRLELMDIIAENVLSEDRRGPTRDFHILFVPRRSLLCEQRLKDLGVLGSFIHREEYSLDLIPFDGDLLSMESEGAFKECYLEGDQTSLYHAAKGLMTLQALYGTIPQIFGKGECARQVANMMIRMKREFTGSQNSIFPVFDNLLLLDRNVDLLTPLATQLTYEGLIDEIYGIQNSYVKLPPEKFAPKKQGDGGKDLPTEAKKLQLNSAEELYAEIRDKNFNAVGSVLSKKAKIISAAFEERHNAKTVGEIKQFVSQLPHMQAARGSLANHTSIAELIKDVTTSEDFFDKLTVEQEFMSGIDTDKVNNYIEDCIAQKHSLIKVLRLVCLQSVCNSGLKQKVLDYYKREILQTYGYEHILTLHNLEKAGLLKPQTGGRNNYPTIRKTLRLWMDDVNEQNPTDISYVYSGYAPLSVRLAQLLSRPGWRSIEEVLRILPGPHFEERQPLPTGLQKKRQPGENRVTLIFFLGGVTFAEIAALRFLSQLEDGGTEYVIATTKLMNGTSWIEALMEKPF
UniProt Q969M7: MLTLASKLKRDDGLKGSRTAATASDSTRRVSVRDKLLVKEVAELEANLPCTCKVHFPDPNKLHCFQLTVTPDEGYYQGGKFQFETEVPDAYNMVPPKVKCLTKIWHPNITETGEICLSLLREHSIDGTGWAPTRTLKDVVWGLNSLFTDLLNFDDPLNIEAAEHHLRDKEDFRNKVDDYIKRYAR
UniProt Q96AP4: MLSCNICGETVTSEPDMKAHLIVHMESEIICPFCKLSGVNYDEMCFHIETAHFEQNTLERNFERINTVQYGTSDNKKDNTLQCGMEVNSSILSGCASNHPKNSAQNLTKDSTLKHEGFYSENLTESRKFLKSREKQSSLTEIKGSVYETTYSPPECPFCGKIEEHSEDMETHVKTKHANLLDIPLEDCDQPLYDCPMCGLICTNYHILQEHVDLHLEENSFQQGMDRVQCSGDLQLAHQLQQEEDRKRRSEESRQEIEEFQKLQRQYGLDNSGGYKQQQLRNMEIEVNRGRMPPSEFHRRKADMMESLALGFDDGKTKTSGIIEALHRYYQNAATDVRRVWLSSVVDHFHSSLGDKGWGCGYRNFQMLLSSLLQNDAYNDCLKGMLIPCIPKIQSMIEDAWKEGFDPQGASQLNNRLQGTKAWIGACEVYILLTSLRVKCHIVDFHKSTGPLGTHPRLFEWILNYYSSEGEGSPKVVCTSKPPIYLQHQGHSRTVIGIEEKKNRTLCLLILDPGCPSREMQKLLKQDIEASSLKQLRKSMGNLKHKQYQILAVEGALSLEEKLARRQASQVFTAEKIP
UniProt Q96AP0: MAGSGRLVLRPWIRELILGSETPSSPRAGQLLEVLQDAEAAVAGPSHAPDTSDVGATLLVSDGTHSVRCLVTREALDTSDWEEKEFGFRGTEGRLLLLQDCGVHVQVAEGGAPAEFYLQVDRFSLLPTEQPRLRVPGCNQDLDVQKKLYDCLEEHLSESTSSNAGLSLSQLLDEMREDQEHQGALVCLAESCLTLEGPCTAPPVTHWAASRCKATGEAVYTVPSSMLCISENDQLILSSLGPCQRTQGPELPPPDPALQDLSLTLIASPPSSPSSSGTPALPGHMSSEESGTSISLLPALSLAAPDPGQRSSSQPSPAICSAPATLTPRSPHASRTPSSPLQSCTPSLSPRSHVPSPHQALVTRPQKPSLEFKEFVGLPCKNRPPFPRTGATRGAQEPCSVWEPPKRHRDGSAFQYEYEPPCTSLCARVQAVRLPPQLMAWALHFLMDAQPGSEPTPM
UniProt Q969H6: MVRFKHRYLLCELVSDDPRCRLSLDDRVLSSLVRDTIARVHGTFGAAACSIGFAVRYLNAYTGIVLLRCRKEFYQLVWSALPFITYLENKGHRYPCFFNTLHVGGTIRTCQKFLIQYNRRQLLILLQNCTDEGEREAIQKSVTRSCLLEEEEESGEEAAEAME
UniProt Q92878: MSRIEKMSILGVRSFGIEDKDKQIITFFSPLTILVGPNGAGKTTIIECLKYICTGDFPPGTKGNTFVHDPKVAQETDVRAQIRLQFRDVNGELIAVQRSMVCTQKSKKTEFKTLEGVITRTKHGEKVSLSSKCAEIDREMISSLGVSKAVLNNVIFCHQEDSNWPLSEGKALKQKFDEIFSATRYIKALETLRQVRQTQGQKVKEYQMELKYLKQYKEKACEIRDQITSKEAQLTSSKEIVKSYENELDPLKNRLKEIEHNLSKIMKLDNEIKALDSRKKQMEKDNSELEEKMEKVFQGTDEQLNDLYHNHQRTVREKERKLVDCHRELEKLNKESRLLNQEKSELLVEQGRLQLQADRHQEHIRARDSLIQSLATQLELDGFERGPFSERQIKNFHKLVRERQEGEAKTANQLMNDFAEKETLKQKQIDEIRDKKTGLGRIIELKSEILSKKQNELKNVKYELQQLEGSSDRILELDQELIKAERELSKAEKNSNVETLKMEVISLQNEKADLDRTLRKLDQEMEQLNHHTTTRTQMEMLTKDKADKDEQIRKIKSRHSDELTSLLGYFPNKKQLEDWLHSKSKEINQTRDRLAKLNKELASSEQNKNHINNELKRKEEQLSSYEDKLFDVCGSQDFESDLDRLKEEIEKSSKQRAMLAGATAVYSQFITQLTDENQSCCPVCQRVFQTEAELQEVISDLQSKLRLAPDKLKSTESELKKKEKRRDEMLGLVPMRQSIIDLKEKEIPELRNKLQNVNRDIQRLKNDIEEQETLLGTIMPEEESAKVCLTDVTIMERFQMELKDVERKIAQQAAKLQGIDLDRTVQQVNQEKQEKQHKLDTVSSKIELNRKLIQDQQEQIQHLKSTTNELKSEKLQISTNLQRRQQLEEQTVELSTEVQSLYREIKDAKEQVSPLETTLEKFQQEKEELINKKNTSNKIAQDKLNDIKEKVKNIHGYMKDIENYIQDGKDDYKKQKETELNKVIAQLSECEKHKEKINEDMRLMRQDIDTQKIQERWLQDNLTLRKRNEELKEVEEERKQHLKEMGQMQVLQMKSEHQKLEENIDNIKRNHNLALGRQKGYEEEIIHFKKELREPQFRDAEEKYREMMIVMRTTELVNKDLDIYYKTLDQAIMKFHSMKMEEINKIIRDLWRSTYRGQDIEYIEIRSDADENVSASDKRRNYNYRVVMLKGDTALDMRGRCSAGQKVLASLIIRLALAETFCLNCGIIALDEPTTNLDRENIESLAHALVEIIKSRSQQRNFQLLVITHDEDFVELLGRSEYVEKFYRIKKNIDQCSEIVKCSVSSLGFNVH
UniProt Q92879: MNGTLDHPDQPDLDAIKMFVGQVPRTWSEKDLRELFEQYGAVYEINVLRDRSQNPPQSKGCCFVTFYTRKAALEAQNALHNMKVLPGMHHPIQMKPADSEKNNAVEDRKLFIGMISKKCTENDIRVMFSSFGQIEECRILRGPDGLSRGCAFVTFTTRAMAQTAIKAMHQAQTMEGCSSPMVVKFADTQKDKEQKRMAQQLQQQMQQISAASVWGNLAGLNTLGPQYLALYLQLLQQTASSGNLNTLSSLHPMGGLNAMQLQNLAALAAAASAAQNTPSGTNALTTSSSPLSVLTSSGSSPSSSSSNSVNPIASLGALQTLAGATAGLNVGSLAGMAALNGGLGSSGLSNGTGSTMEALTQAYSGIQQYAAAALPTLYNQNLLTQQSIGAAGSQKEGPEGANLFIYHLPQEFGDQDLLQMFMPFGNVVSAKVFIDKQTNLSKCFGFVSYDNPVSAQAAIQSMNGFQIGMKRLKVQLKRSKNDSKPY

The list shows a part of the results. Small differences around the control level are noise.

Compound in the assay: CN[C@@H]1C[C@H]2O[C@@](C)([C@@H]1OC)n1c3ccccc3c3c4c(c5c6ccccc6n2c5c31)C(=O)NC4 [staurosporine]
Description: log2 fold change of tryptic peptide abundance, ligand vs vehicle (limited proteolysis) (log2 ratio); higher = more trypsin-susceptible (destabilized). To be noted: ligand concentration: 20 uM; sample: K562 cleared lysate; digestion: 4 min, 22 C (HT-PELSA RT4min, Orbitrap Astral).
On to “MRRF (peptide sequence: TSPGSLDKIAVVTADGK, peptide start residue: 111) (UniProt Q96E11)”, for which the log2 fold change turned out to be 0.254.

“MAGOHB (peptide sequence: CLVFSLIGLHFK, peptide start residue: 133) (UniProt Q96A72)”: the log2 fold change stood at 0.358.

Turning to “EDC3 (peptide sequence: AAVFEEIDTYERR, peptide start residue: 216) (UniProt Q96F86)”, the log2 fold change came to 0.132.

Take “UniProt Q93015 (peptide sequence: KAPNLTAQAAPR, peptide start residue: 223)”: the log2 fold change amounted to 0.295.

As to “RBM33 (peptide sequence: GTVVTPVQVPLLPVPSQPR, peptide start residue: 393) (UniProt Q96EV2)”, the log2 fold change is -0.347.

Regarding “RPUSD4 (peptide sequence: MTLSPSYR, peptide start residue: 218) (UniProt Q96CM3)”, the log2 fold change is -0.203. As for “ADAT3 (peptide sequence: EVSALHPLPAQPHLK, peptide start residue: 62) (UniProt Q96EY9)”, the log2 fold change worked out at 0.276. As to “SNRNP40 (peptide sequence: FVYVWDTTSR, peptide start residue: 308) (UniProt Q96DI7)”, the log2 fold change is -0.245. For the target “SMARCC1 (peptide sequence: KVEHEISEGNVATAAAAALASAATKAK, peptide start residue: 856) (UniProt Q92922)”, the log2 fold change was -0.477.

In the case of “ZBTB10 (peptide sequence: NLTNLASNVK, peptide start residue: 506) (UniProt Q96DT7)”, the log2 fold change is -0.283. Next, “FOXRED1 (peptide sequence: EGLGSNYLGGR, peptide start residue: 353) (UniProt Q96CU9)”: 0.188.

Turning to “UniProt Q96BR5 (peptide sequence: DMDLACK, peptide start residue: 167)”, the log2 fold change is -0.775. Next, “VPS33A (peptide sequence: DKNFNAVGSVLSKK, peptide start residue: 301) (UniProt Q96AX1)”: -0.119; “MTMR8 (peptide sequence: QSMLESLLEIKK, peptide start residue: 511) (UniProt Q96EF0)”: 0.53. Turning to “UBE2F (peptide sequence: NKVDDYIKR, peptide start residue: 174) (UniProt Q969M7)”, the log2 fold change was determined as 0.167. Consider “CNRIP1 (peptide sequence: GDLPGLVR, peptide start residue: 2) (UniProt Q96F85)”, for which the log2 fold change came out at 0.218. Turning to “ZUP1 (peptide sequence: QYGLDNSGGYK, peptide start residue: 266) (UniProt Q96AP4)”, the log2 fold change is -0.249.

On to “ACD (peptide sequence: GAQEPCSVWEPPKR, peptide start residue: 394) (UniProt Q96AP0)”, for which the log2 fold change came out at 0.428. Regarding “KAT5 (peptide sequence: KLFYVHYIDFNKR, peptide start residue: 41) (UniProt Q92993)”, the log2 fold change is -0.6. Regarding “POP5 (peptide sequence: VHGTFGAAACSIGFAVR, peptide start residue: 40) (UniProt Q969H6)”, the log2 fold change was -0.433. Consider “RAD50 (peptide sequence: LMRQDIDTQKIQER, peptide start residue: 1003) (UniProt Q92878)”, for which the log2 fold change amounted to 0.791.

In the case of “UniProt Q96C57 (peptide sequence: CREAAVSASDILQESAIHSPGTVEK, peptide start residue: 161)”, the log2 fold change worked out at 0.395. Next, “MRPL38 (peptide sequence: EYFGEKTDPKEK, peptide start residue: 76) (UniProt Q96DV4)”: 0.47. Regarding “UniProt Q92879 (peptide sequence: FADTQKDKEQK, peptide start residue: 185)”, the log2 fold change is -0.599.

For “APH1A (peptide sequence: VMVYSALR, peptide start residue: 253) (UniProt Q96BI3)”, the log2 fold change was -0.155.
